Record: PubChem BioAssay AID1259272 (Sanger Institute, 2017)
In all, the deposit lists 794 reagents; this is a random part of them. 7 of all reagents (0.88%) were called active. 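Essential calls reflect knock-down without drug only, not synergy with drugs; drug exposure length not given.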 No viability above 1 is reported: the scale is capped. Not given: the amount of reagent, the time to read-out.

Purpose: 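Find kinases needed for SW1116 growth and partners for drug combinations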 (primary screen)
System: SW1116 human colorectal cancer cells
Reagent: siRNA pool against human genes
Conditions: anchor drugs BYL719 (1 µM), cetuximab (5 µg/ml) or trametinib (10 nM), or DMSO vehicle; exposure length not given
Detection: 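Replicate-averaged viability versus control-pool wells, with a robust z-score for siRNA alone and a per-drug synergy score (BYL719, cetuximab, trametinib)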
Direction: viability z-score, no drug: higher = more cells remaining; strongly negative means essential gene; viability, no drug: higher = more viable cells; synergy score with BYL719 and synergy score with cetuximab and synergy score with trametinib: higher = stronger synthetic-lethal synergy with the drug
Rule for the call: 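a robust z-score under -3 with siRNA and no drug marks the gene essential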
Meaning of the calls: active = essential (knock-down alone); inactive = no change

gene	viability z-score, no drug	viability, no drug (fraction of control)	synergy score with BYL719	synergy score with cetuximab	synergy score with trametinib	Call
ATP23	0.842	1	-0.0788	-0.0757	0.0333	inactive
CDK8 (cyclin dependent kinase 8)	0.842	1	-0.0352	0.0204	0.0292	inactive
BMPR1A (bone morphogenetic protein receptor type 1A)	0.842	1	0.053	-0.0217	0.105	inactive
TRIO (trio Rho guanine nucleotide exchange factor)	0.431	0.956	-0.0394	0.0872	0.112	inactive
GATA3 (GATA binding protein 3)	0.229	0.935	-0.139	0.0421	-0.113	inactive
PRKDC (protein kinase, DNA-activated, catalytic subunit)	-1.14	0.789	-0.131	-0.00294	-0.0763	inactive
DGUOK (deoxyguanosine kinase)	-1.22	0.78	0.0727	-0.00842	0.0381	inactive
TRIB2 (tribbles pseudokinase 2)	-2.48	0.646	-0.039	-0.156	0.0372	inactive
INSRR (insulin receptor related receptor)	-1.03	0.801	-0.125	-0.126	-0.0361	inactive
SBK1 (SH3 domain binding kinase 1)	0.842	1	-0.0788	-0.0394	0.0353	inactive
SRP72 (signal recognition particle 72)	0.00344	0.911	-0.084	-0.158	-0.271	inactive
ERBB3 (erb-b2 receptor tyrosine kinase 3)	0.842	1	0.0216	0.137	0.0897	inactive
STK32A (serine/threonine kinase 32A)	0.139	0.925	-0.0815	-0.145	-0.0757	inactive
RPS6KL1 (ribosomal protein S6 kinase like 1)	-0.137	0.896	0.0064	0.0231	0.185	inactive
FER (FER tyrosine kinase)	0.842	1	-0.0788	0.0706	-0.122	inactive
LMBR1 (limb development membrane protein 1)	-1.9	0.707	-0.289	-0.192	0.00363	inactive
KHK (ketohexokinase)	0.842	1	-0.0781	0.00596	-0.00175	inactive
CHD9 (chromodomain helicase DNA binding protein 9)	0.842	1	-0.0714	0.0972	-0.00712	inactive
NME3 (NME/NM23 nucleoside diphosphate kinase 3)	0.601	0.974	-0.0521	-0.0743	-0.0535	inactive
CDK15 (cyclin dependent kinase 15)	0.842	1	-0.0417	-0.024	-0.106	inactive
CSK (C-terminal Src kinase)	0.842	1	-0.0245	-0.0019	0.0629	inactive
NEK5 (NIMA related kinase 5)	0.842	1	0.02	0.063	0.0636	inactive
NEK6 (NIMA related kinase 6)	0.842	1	-0.0788	-0.0757	-0.0841	inactive
PANK1 (pantothenate kinase 1)	0.842	1	0.00173	-0.0757	-0.066	inactive
EFNA5 (ephrin A5)	0.842	1	-0.0788	-0.06	-0.104	inactive
GRK7 (G protein-coupled receptor kinase 7)	0.842	1	0.0616	0.141	0.151	inactive
EPHA10 (EPH receptor A10)	-0.76	0.829	-0.22	0.0621	0.141	inactive
TSSK1B (testis specific serine kinase 1B)	0.695	0.984	0.0151	0.0777	0.0278	inactive
MAPK9 (mitogen-activated protein kinase 9)	0.842	1	0.0477	0.00852	-0.0536	inactive
TP53BP1 (tumor protein p53 binding protein 1)	0.842	1	0.0667	0.109	0.156	inactive
AURKB (aurora kinase B)	-2.3	0.666	0.0124	-0.11	0.0527	inactive
MAST1 (microtubule associated serine/threonine kinase 1)	0.842	1	-0.0585	0.00572	-0.0738	inactive
SKAP1 (src kinase associated phosphoprotein 1)	0.842	1	-0.0788	-0.0328	0.056	inactive
SRMS	-0.959	0.808	0.0848	0.0491	0.101	inactive
CSNK1E (casein kinase 1 epsilon)	0.636	0.978	0.171	0.209	0.0506	inactive
ITPKC (inositol-trisphosphate 3-kinase C)	0.842	1	-0.0788	0.0933	-0.124	inactive
AMHR2 (anti-Mullerian hormone receptor type 2)	0.0868	0.92	-0.0353	0.0749	0.253	inactive
PKM (pyruvate kinase M1/2)	0.842	1	0.0764	-0.0221	0.0818	inactive
MAP4K5 (mitogen-activated protein kinase kinase kinase kinase 5)	-1.96	0.702	-0.18	-0.0652	0.0594	inactive
MED12 (mediator complex subunit 12)	-1.39	0.762	-0.19	-0.223	-0.0368	inactive
PIP4K2C (phosphatidylinositol-5-phosphate 4-kinase type 2 gamma)	0.0794	0.919	-0.0704	-0.149	0.0939	inactive
RPS6KA5 (ribosomal protein S6 kinase A5)	-1.7	0.729	-0.206	-0.173	0.139	inactive
UCK1 (uridine-cytidine kinase 1)	0.842	1	-0.0729	-0.0713	-0.249	inactive
PANK3 (pantothenate kinase 3)	0.842	1	-0.0735	-0.0515	0.0169	inactive
EIF2AK1 (eukaryotic translation initiation factor 2 alpha kinase 1)	0.842	1	0.073	-0.0757	0.186	inactive
MAPK4 (mitogen-activated protein kinase 4)	-1.53	0.748	-0.0352	0.00557	0.0467	inactive
PRKAA2 (protein kinase AMP-activated catalytic subunit alpha 2)	-0.318	0.876	-0.0816	-0.0484	-0.00315	inactive
EPHA8 (EPH receptor A8)	0.363	0.949	-0.0422	-0.0724	-0.119	inactive
PAK1 (p21 (RAC1) activated kinase 1)	-1.48	0.753	-0.0698	0.0829	0.0336	inactive
OBSCN	0.842	1	-0.0441	0.0556	0.0871	inactive
STK36 (serine/threonine kinase 36)	-1.3	0.771	-0.289	-0.0469	0.0157	inactive
PIM3 (Pim-3 proto-oncogene, serine/threonine kinase)	0.842	1	-0.0788	-0.0152	0.116	inactive
VRK2 (VRK serine/threonine kinase 2)	0.842	1	0.123	0.0587	0.143	inactive
ATR (ATR checkpoint kinase)	-0.12	0.898	-0.173	-0.125	0.0854	inactive
TRIB1 (tribbles pseudokinase 1)	0.842	1	0.0136	-0.0757	-0.0312	inactive
MPP3 (MAGUK p55 scaffold protein 3)	-3.47	0.541	-0.133	-0.083	0.133	active
TWF2 (twinfilin actin binding protein 2)	0.819	0.998	-0.0128	0.0636	0.11	inactive
CDADC1 (cytidine and dCMP deaminase domain containing 1)	-0.557	0.851	-0.102	-0.163	0.0277	inactive
ATRX (ATRX chromatin remodeler)	0.842	1	-0.0788	0.0392	-0.0896	inactive
HUNK (hormonally up-regulated Neu-associated kinase)	-1.52	0.748	0.0302	0.0191	0.159	inactive
MAP4K2 (mitogen-activated protein kinase kinase kinase kinase 2)	0.553	0.969	-0.0687	0.0925	0.132	inactive
EPHA1 (EPH receptor A1)	0.842	1	-0.0788	0.105	0.102	inactive
IP6K1 (inositol hexakisphosphate kinase 1)	0.842	1	-0.0788	-0.0757	0.000201	inactive

Reagents above called active (1):
gene	viability z-score, no drug	viability, no drug (fraction of control)	synergy score with BYL719	synergy score with cetuximab	synergy score with trametinib	Call
MPP3 (MAGUK p55 scaffold protein 3)	-3.47	0.541	-0.133	-0.083	0.133	active
